PubChem BioAssay AID463193 (University of Pittsburgh Molecular Library Screening Center, 2010)
The other results are listed elsewhere or left out.

Test: GFP-LC3 puncta formation changes – imaging, high-content, MEF GFP-LC3, primary screen (AID 463193);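 further: cell loss after 18 h compound exposure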
Details: autophagy, measured here: cell loss, nuclei count, at 10 µM

Row | SMILES | toxicity [%]
1 | CP(=O)(Nc1cccc(Br)c1)Oc1ccccc1 (stereo unspecified) | -4.2
